Assay [1] concerns the target T1, recombinant extracellular domain (ECD) of human prolactin receptor (PRLR), amino acids 25-234 of SEQ ID NO: 2 (human) (UniProt P16471).
T1 sequence: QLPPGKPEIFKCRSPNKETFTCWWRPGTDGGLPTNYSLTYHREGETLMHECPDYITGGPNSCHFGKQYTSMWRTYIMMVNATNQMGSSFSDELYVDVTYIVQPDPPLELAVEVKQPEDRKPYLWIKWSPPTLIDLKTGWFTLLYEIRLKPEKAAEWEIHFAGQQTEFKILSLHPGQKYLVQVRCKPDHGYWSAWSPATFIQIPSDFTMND
The assay is described as follows: Biacore SPR.

Assay [2] addresses T1, recombinant extracellular domain (ECD) of human prolactin receptor (PRLR), amino acids 25-234 of SEQ ID NO: 2 (human). The assay can be described thus: Biacore SPR; antibody covalently immobilized on CM4 chip.

Where a chain is given by its changes, count along the chain named. Results are given in words; binding and its absence hold for the method and conditions named. Some binding calls cover weakened binding; strength is not graded here.

B1: he.06.275-1 (antibody, V domains shown)
VH: DVQLQESGPGLVKPSQTLSLTCTVTGYSITSDYAWNWIRQFPGKKLEWMGYISYSGSTSYNPSLKSRITISRDTSKNQFSLQLNSVTAADTATYFCARDYGYVFDYWGQGTTLTVSS
VL: DVQITQSPSSLSASPGDRITLTCRASKNIYKYLAWYQEKPGKTNNLLIYSGSTLHSGIPSRFSGSGSGTDFTLTISSLQPEDFAMYYCQQHNDYPYTFGQGTKLEIK
In the case of B1, in assay [1], the binding result is recorded as “binds”.

B2: he.06.642-2 (antibody, V domains shown)
VH: EVQLVESGGGLVQPGGSLRLSCAVSGFTFSSYGMSWVRQAPGKGLEWVATVSSGGTYTYYPDSVKGRFTISRDNSKNTLYLQMNSLRAEDTAVYYCARHRGNYYATYYYAMDYWGQGTLVTVSS
VL: DIVLTQSPDSLAVSLGERATINCKASKSVSTSGYTYMHWYQQKPGQPPKLLIYLASNRESGVPDRFSGSGSGTDFTLTISPVQAEDVATYYCQHSGELPPSFGQGTKLEIK
As for B2, the binding result in assay [1] and in assay [2] was “binds” in each case.

B3: he.06.642-1 (antibody, V domains shown)
VH: B2 VH with G44R, V93M
VL: B2 VL
For the molecule B3, the binding result in assay [1] is recorded as “binds”.

The record behind these values is patent US20150175705A1.
